The source of these data is PubChem BioAssay AID1508600 (Functional Genomics Laboratory (NCATS/FGL), 2020).

The whole screen tested about 53,000 sequences, of which about 3,700 (7%) were called active.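 Rule for the calls: active = gene knockdowns whose robust z-score for IL-1 alpha signal is at least 2 or at most -2, so actives lie on both sides; inactive = the rest.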 This is one part of the list.

This assay can be described thus: Components of the Cytosolic LPS Sensing Pathway: Gene Identification via Genome-wide siRNA Screen.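 Note: robust z of the log signal after scaling to non-targeting control siRNA wells of the plate.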 The conditions noted are these: RAW264.7 macrophages, IL-1a HTRF, actives lie on both sides, screened at 100 nM (by protocol), cells primed 5 h with Pam3CSK4 first. In a few lines:
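RAW264.7 mouse macrophages reverse-transfected with single siRNAs (100 nM final) for 48h, primed with Pam3CSK4 for 5 hours, then transfected with LipidA for 24 hour. Supernatant IL-1a read by HTRF; values normalized to negative-control median, log-transformed robust z-scores.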
A general note: TR-FRET usually uses a lanthanide donor and a delayed reading to cut background.
On to GGAAGAAGGCUAUAAGAAATT against Galnt6, for which the z-score was inactive: 0.515.
Consider GCCCUUAACAGAAAAACUATT against Hmgcl, for which the z-score is inactive: -0.589.
The value for GGCAAGCCAGAGAAACUGATT against Rbm42 was active: 6.18; that for GGCUGUUACUCUCUCUCUCTT against Ly6g6g was inactive: 1.16.
CCGGAUUAAUGAUGCAAUGTT against Coq9: the z-score is inactive: -0.499.
For GGAUCUCCGGACAUUUAAGTT against Col28a1 the value was inactive: 1.96.
Consider GGACUGAUUGUUUUAUGCUTT against Gdap10, for which the z-score is inactive: -1.06.
For GCACAUUGGCAUUGUGUAUTT against Pdxk the value was inactive: 0.952.
As for CGAGUUCCACAGUGAAAUATT against Cyp2c70, the z-score is inactive: -1.36.
For GGGAUUGAGGGAGAUUUUCTT against Tedc2 the value was inactive: -0.206.
For GCCAAUUGAGUCGUCUAUCTT against Rps6ka1, the z-score is active: 2.41.
The value for GCAUCCUUGACCGAUACUATT against Psmb2 was active: -2.78; that for GCGGUGCUGUUUUCCUUAUTT against Dpagt1 was inactive: -0.544.
For GGCAGGGUAGCCAAACAAATT against Cenpt the value was inactive: -1.45; for GGACAUCAACAUUAUCACUTT against Chn1, inactive: -1.42; for GGGUUGCCAUCGAGACAAGTT against Nelfe, inactive: 0.823.
Turning to CGAUCCAUUUCCUUACGACTT against Cyp20a1, the z-score was inactive: 0.233.
In the case of GGCUUUCGCCUGAUUGGGUTT against Rhbdl2, the z-score is inactive: -0.707.
GGCUCUUUGAUCACCAUUGTT against Fam210a: the z-score is inactive: -0.903.
For GGAGAGUACUAAAUUUAAGTT against Dcaf17 the value was inactive: 1.87; for GCCAAGUGGGACAAAUUCGTT against Dync2h1, inactive: -1.59; for GGCAAAAUAAGGAGCUAGATT against Itpkc, inactive: -0.228.
On to CCAUGGUCCUUGUCGUCAUTT against Kir3dl1, for which the z-score was inactive: 0.315.
Regarding GGCCUGUAAAAACUAUUGGTT against Mcpt4, the z-score is inactive: 0.122.
For the sequence CGAAUGUUCGAGGUUUAUUTT against Ctdspl, the z-score is inactive: 1.06.
Consider GCCUUUGCGCAAAAUGGUCTT against Zfp933, for which the z-score was inactive: -0.073.
On to CCCUUUAUUAUUCCACUGUTT against Olfr530, for which the z-score was inactive: -1.12.
Take GGAGCUCAUUAGCAAAUAUTT against Olfm5: the z-score was inactive: -0.859.
As for GGAACAACUUUCAUCUCACTT against Anxa10, the z-score is inactive: 1.34.
The value for GCGGUACAACCAAAAAGACTT against Krt72 was inactive: 0.143; that for GGGACAAUUGGAAAGGCGATT against Wdr55 was inactive: 0.507; that for GGCAGAGAAAAGGACCUUUTT against Mcts2 was inactive: -1.32.
The value for GGACUCUAAGUUGUGAAUUTT against Pten was inactive: -0.351.
For GGUGCCAACUUUAAAAGCUTT against Zbtb14, the z-score was inactive: 0.937.
The value for GGAAAAGAAGAGGAUGGAGTT against Vpreb1 was inactive: -1.61; that for UCUGCGCACUAAAUGCAUCTT against Olfr46 was inactive: 0.612.
The value for GGCAAAAAGUCAUUGCCAATT against Slc26a9 was inactive: 0.272; that for GCCUGGUCUCACUAUGUAGTT against Hpvc2 was inactive: 0.129.
As for GGUAGAGAAACCUAGUGUUTT against Map6, the z-score is inactive: 0.218.
Take GGACUUUCUGAGUAAGAAUTT against Coa8: the z-score is inactive: -0.873.
For GCCAACCAUCUUUUGACAGTT against Inka2 the value was inactive: 1.3.
In the case of GCAACCAUUUAAGAAGACCTT against Tnfrsf9, the z-score was inactive: -0.301.
Take CCAGCUUUCAUUAACUUUATT against Ppp1r10: the z-score is inactive: -0.571.
For GGUGAUGAAAAGAAUUGCATT against Pitrm1 the value was inactive: 0.417; for CCUGAGAAAACUUCUUACUTT against Maged1, inactive: -0.592; for GCGUAUCAAGAAUUUGUCCTT against Mtus1, inactive: -0.9.
The value for GGAAAAAAACCGCUAUGUATT against Ptpra was inactive: -1.02.
The value for GGGAAGAUUUUUCUGAUCUTT against Kcnk13 was inactive: -1.52.
For the sequence CCAAAAAGAGCGAUUACCCTT against Shc1, the z-score was inactive: 0.368.
On to GGUUCCAACAGGAGAGAACTT against Med23, for which the z-score is inactive: 0.692.
GGUACAGGUUGGCAUUGAUTT against Aasdhppt: the z-score was inactive: -0.342.
Take GGUAAAACCGUUUUUGACATT against Zfp830: the z-score is inactive: -0.493.
The value for AUAAAAGUGACUCACCAACTT against A4galt was inactive: 0.543.
The value for GGACUGAUUCGUCUAAUACTT against Ckap2 was inactive: -0.0467; that for GCUCGUCGGCUUUUUGUAATT against Spag6 was inactive: -1.35; that for GGCGACUUAUUAAAAUCCUTT against Fads3 was inactive: 0.445.
In the case of GCCAGGUUUACCUAAGAGGTT against Rhog, the z-score was inactive: -0.819.
For CCAGUCGUGUUACAAUGUUTT against Fam187a the value was inactive: 0.29; for GGCCGAACCAUCUCAUACCTT against Olfr976, inactive: -0.553; for GGUACUGGAUCAAAGAAACTT against Gm11992, inactive: -1.75.
In the case of GGAGAGAGAAUGAAAGUCATT against Usf3, the z-score was inactive: 0.0464.
With GGAGAGUACUGCCAGACUCTT against Ring1, the z-score was inactive: 1.61.
As for GGACAAACUCUUGCUCUCCTT against Chpt1, the z-score is inactive: 0.42.
For the sequence GCUUGUCGAGAAACUCUGGTT against Cfap69, the z-score is inactive: 1.02.
The value for “GGUUGAAGAGCAUGAGAGCTT against A330041J22Rik” was inactive: 1.01; that for GGAUAUCUCACUGCUUUUATT against Mpp5 was active: 2.13; that for GGAUCUGAAAGAUCAGAUUTT against Lmnb1 was inactive: 0.949.
The value for GGAAGAAGAAGGAAGAUGATT against Cfdp1 was inactive: -0.577.
